Test results as given in PMC2662470.
Results are given in words; binding and its absence hold for the method and conditions named. Some results given as binding are weak or reduced against the parent protein; the word gives no strength.

The chains behind the UniProt entries cited, without tags or fusion partners. Residues count along the entry.
PDZ domain (of PICK1) (Q9EP80, residues 22-105): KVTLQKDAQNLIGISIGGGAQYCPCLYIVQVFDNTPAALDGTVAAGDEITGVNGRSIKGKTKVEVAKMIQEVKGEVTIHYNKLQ
C-terminal BARc region (amino acids 128–416) of rat PICK1 (Q9EP80, residues 128-416): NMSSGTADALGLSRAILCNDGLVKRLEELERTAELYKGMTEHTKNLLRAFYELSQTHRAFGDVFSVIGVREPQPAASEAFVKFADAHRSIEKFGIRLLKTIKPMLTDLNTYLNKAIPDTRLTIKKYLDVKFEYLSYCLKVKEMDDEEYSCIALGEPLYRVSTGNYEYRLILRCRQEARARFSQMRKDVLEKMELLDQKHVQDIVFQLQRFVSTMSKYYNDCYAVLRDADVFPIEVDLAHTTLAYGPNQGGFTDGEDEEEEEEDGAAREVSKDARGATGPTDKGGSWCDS

Molecular target: PDZ domain (of PICK1) (rat) (UniProt Q9EP80)
Assay: pull-down; about 20 ug PDZ domain on Ni2+-NTA agarose beads mixed with 0, 25, 50, 100 ug soluble BARc in 500 ul buffer, 2 h at 4 °C; washed five times with 50 mM Tris-HCl, 150 mM NaCl, 5 mM imidazole, pH 7.5; SDS-PAGE; both purified

C-terminal BARc region (amino acids 128–416) of rat PICK1 (from UniProt Q9EP80 128-416) (domain or fragment)
binding: binds
